The record followed here is paper doi:10.1101/2022.08.16.504078.

By UniProt entry, the sequences of proteins in these tests, tags left out. Residues count along the entry.
UniProt P17301, residues 30-1181: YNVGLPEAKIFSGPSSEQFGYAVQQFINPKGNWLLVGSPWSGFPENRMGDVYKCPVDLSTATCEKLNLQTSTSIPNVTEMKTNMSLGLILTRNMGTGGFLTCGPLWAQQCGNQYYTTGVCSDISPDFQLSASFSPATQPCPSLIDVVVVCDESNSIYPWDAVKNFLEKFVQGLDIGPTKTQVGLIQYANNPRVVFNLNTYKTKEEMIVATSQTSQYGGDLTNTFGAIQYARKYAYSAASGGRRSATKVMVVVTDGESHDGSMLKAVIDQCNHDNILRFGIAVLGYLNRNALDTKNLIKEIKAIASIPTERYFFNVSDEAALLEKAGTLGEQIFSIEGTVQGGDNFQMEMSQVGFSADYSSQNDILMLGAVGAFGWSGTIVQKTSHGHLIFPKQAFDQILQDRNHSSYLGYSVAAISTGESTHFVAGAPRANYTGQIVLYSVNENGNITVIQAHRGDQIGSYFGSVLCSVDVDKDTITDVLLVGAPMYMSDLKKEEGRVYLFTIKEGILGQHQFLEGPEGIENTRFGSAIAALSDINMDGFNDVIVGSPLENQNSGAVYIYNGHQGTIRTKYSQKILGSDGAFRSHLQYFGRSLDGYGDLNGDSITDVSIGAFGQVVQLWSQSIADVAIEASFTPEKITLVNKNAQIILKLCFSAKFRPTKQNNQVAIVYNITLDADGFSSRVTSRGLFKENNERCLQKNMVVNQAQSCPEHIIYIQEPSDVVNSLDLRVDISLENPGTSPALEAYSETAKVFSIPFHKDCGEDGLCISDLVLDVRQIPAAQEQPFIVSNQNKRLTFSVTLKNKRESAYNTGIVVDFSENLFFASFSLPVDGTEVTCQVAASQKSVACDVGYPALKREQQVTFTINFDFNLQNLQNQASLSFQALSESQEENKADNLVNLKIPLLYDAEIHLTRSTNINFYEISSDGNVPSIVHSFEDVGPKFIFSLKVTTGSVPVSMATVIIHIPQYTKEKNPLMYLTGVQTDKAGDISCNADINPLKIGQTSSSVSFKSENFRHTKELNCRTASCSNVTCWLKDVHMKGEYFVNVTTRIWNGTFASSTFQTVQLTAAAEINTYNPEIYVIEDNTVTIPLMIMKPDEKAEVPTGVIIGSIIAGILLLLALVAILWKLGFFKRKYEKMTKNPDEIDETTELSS
UniProt P18564, residues 22-788: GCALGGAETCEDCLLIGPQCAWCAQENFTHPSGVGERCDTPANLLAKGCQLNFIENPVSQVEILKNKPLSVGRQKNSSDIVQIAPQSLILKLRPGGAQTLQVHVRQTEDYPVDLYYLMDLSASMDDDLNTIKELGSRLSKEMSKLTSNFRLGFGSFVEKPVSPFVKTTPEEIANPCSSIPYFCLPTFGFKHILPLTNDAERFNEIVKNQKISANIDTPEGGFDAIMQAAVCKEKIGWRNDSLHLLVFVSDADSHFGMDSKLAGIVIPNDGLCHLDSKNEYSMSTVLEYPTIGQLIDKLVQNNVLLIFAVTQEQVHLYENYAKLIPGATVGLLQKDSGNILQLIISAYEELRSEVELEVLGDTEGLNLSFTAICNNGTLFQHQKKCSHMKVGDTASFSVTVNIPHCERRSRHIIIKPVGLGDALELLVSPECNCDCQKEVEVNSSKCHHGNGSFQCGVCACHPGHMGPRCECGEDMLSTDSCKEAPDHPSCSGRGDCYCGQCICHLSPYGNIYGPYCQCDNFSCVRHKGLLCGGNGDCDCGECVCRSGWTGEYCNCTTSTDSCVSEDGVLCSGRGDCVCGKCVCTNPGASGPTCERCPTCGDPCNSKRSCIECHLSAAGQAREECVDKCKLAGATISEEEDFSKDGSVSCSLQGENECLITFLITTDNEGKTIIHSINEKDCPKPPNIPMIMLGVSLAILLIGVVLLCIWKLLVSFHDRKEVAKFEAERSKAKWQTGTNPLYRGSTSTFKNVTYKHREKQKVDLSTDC
UniProt P05107, residues 23-769: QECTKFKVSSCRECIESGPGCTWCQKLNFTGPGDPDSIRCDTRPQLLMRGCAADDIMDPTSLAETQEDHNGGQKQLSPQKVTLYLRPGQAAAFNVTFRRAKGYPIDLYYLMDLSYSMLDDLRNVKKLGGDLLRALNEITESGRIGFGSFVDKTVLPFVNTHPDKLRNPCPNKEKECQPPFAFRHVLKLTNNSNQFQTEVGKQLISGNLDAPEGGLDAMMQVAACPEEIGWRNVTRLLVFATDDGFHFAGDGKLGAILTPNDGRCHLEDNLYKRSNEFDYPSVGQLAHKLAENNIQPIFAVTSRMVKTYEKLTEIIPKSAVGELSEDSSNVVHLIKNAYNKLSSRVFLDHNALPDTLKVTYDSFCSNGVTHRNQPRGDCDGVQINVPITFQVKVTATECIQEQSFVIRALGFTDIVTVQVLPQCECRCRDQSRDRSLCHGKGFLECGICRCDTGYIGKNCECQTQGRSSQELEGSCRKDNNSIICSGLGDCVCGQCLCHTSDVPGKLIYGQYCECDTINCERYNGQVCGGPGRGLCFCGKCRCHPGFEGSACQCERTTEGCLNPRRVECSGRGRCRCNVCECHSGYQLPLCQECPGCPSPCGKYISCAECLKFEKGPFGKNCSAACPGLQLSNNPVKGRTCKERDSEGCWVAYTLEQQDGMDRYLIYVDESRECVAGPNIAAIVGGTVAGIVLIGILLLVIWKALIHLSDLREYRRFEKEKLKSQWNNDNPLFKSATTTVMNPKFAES

Assay [1] concerns the target ITGA2-HIS (integrin alpha subunit ITGA2 with HIS tag) (human) (UniProt P17301). The experiment in a line: co-IP.
For assay [2], the target named is endogenous ITGB6 (human (endogenous in A549)) (UniProt P18564). The experiment in a line: co-IP.

Results are given in words; binding and its absence hold for the method and conditions named. In cells and extracts the contact can be indirect. Some entries that bind do so weakly or less than the wild type.

Turning to “ITGB2-YFP (integrin beta subunit ITGB2 with YFP) (from UniProt P05107 23-769)”, the binding entry in assay [1] is “binds”.
With “ITGB6-GFP (integrin beta subunit ITGB6 with GFP) (from UniProt P18564 22-788)”, the binding result in assay [1] was “binds”.
Turning to “endogenous non-phosphorylated EGF receptor (EGFR) (from UniProt P00533 25-1210)”, the binding result in assay [2] is reported as “binds”.
